# PMC7819943, “Rice protein-binding microarrays: a tool to detect cis-acting elements near promoter regions in rice”
# By UniProt entry, the sequences of proteins in these tests, tags left out.
# UniProt Q0JBA9, entry or part of it: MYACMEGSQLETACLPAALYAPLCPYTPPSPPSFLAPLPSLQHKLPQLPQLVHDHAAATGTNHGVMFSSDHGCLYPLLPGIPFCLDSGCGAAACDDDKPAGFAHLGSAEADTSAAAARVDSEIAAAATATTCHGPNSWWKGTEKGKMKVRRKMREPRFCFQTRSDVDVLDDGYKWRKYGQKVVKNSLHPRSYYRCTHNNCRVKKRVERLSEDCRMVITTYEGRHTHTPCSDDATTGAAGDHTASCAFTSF
# Some of the results follow.
# Molecular target: OsWRKY34 (Oryza sativa, UniProt Q0JBA9 1-250)
# Test: protein-binding microarray (RPBM); PBS, 2% BSA, 51.3 ng/ul salmon testes DNA, 50 uM zinc acetate, 200 nM TF, 25 C, 1 h; high values mean tight binding
# Conditions: protein: recombinant; tags: N-terminal polyhistidine and DsRed monomer fusion (pET32a); label: CyDye5-dUTP incorporated in the synthesized complementary strand; 3' TTTTT single-stranded linker to array surface; dsDNA, one strand shown
# Procedure, shortened: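 Using Ni–NTA, transcription factors fused N-terminally to polyhistidine and DsRed were purified after expression in E. coli BL21-CodonPlus. These were incubated at 200 nM with a blocked, double-stranded custom Agilent array for 1 h at 25 °C in a buffer containing 50 µM zinc acetate, and the array was washed. The binding signal is per-feature fluorescence intensity (arbitrary units) on an Axon 4000B scanner.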
row,Sequence,binding signal
1,CATAGGTGATCAAATCAATCAGTTGGGTCTGTTGGGTGGGCGGAGTCACCTAGTGCAG,12400 fluorescence intensity (a.u.)
2,CCGGCCCAACACCACTAACACGTTCAGCCCCAATCCCCAACGGAGTCACCTAGTGCAG,8200 fluorescence intensity (a.u.)
3,GTCTCTACCTGGGCGCTTCGAAACATGTTAATCCAGCAGACGGAGTCACCTAGTGCAG,8530 fluorescence intensity (a.u.)
4,GCGGCTGCTCATCAACATCTACGCCATCGGCCGCGACCCGCGGAGTCACCTAGTGCAG,8080 fluorescence intensity (a.u.)
5,CTTTCCTGCACCTCCACTTTATTTAGTTCATTAATTGAATCGGAGTCACCTAGTGCAG,8660 fluorescence intensity (a.u.)
6,TTCCATTGCTCAACTTATGTTCTGCAAGTTGATACGCATTCGGAGTCACCTAGTGCAG,8230 fluorescence intensity (a.u.)
7,GTTCTGTATGTTGGAAAGCCAATGTATCATATTATTATTTCGGAGTCACCTAGTGCAG,8760 fluorescence intensity (a.u.)
8,AGTTGATTTTGGGGTTTTTTCATCGAAGTTTCTTTTTCAGCGGAGTCACCTAGTGCAG,9720 fluorescence intensity (a.u.)
9,CCAAGAATCCAATCTGGAAGTCGTCTGCCTTTAATATTGTCGGAGTCACCTAGTGCAG,9110 fluorescence intensity (a.u.)
10,GCGAAATATCTCACCTCACGTAGCTCTCGCCCCGGAAGACCGGAGTCACCTAGTGCAG,9740 fluorescence intensity (a.u.)
11,ATGTAAATTCAATATCTTTCAACTGTTAGTTTTATTGTCACGGAGTCACCTAGTGCAG,10900 fluorescence intensity (a.u.)
12,CCTGACCCGACTCGCATTATAGCATTTAGCCCGCACCAGTCGGAGTCACCTAGTGCAG,8830 fluorescence intensity (a.u.)
13,ACACTCAAACGACACTTCACGCATCTCTCCTGAAATCTTGCGGAGTCACCTAGTGCAG,8780 fluorescence intensity (a.u.)
14,TTACTCCCGAATGATCCTTTTGCTACATTCCCAATCTATCCGGAGTCACCTAGTGCAG,8490 fluorescence intensity (a.u.)
15,CTCGTCGTCGTCCTCGTCCTCAGTCTTCACCTTTGCTCCCCGGAGTCACCTAGTGCAG,9320 fluorescence intensity (a.u.)
16,CCCTACCTGGCGCGCCACTATCGACGTTTGATGTCGCGATCGGAGTCACCTAGTGCAG,9340 fluorescence intensity (a.u.)
17,CTGTTGGTATTTTGGTCATTTTACTTAAAAAAAGTTGATTCGGAGTCACCTAGTGCAG,8340 fluorescence intensity (a.u.)
18,CTCCGCCTCCGCTGTTCCGTCTCCGACTTCCCCACCACGACGGAGTCACCTAGTGCAG,8960 fluorescence intensity (a.u.)
19,CTTCCCAGAAATCGCCTGACCCACCCGCACCGACAACACACGGAGTCACCTAGTGCAG,8350 fluorescence intensity (a.u.)
20,GTGCAGTTGCCAGGTTGTGAACTTATCATGTTGCTCTCTCCGGAGTCACCTAGTGCAG,13700 fluorescence intensity (a.u.)
21,TTCGCCGTGTTACTGTAGCTCAAATCTCTAGCTTCCCCAACGGAGTCACCTAGTGCAG,9240 fluorescence intensity (a.u.)

# Some values from the entries so far:
# In binding signal, CATAGGTGATCAAATCAATCAGTTGGGTCTGTTGGGTGGGCGGAGTCACCTAGTGCAG is listed with 12400 fluorescence intensity (a.u.)
# In binding signal, ACACTCAAACGACACTTCACGCATCTCTCCTGAAATCTTGCGGAGTCACCTAGTGCAG is listed with 8780 fluorescence intensity (a.u.)

# The list continues.

row,Sequence,binding signal
1,ATCCCACCTACTATCATTGTTAATTTGCAAATTATCCCTTCGGAGTCACCTAGTGCAG,9670 fluorescence intensity (a.u.)
2,TCTTGGGCTTGGGCCTTTGCTATTGTATTGGGTTGGGCCTCGGAGTCACCTAGTGCAG,8400 fluorescence intensity (a.u.)
3,CCATCTATAGCTGTTAGCCACAATAACGTATTCCCGACAACGGAGTCACCTAGTGCAG,9980 fluorescence intensity (a.u.)
4,AAAGTGCCGTATTTTTGTGTTTCTGTTGTAGTGGTAATTACGGAGTCACCTAGTGCAG,12000 fluorescence intensity (a.u.)
5,AAGAAGTCCACCAACCTCTCATCCGCTAGATCGCCAACCCCGGAGTCACCTAGTGCAG,9000 fluorescence intensity (a.u.)
6,ACTATTCATTGATGTTCCTCGCAATTTCGTTGTAAACCACCGGAGTCACCTAGTGCAG,11300 fluorescence intensity (a.u.)
7,GCCCTCCACACCATCCCGTCGCTATTCTGTTTAGCTTTAACGGAGTCACCTAGTGCAG,12900 fluorescence intensity (a.u.)
8,GCGCCGCGTCTGCTTTTGTCATATGATGCACGATTGTGCTCGGAGTCACCTAGTGCAG,8260 fluorescence intensity (a.u.)
9,TCTTGCATTGACAGCCGCATCCACCCTATATATGAATCAACGGAGTCACCTAGTGCAG,8420 fluorescence intensity (a.u.)
10,CATAAACTTCCAACTTTTTTCGTCACATCGTTTCAATTTTCGGAGTCACCTAGTGCAG,10500 fluorescence intensity (a.u.)
11,TGGTGTCTCATAATTCTCTACATGGTATCAAATACTGGTTCGGAGTCACCTAGTGCAG,9610 fluorescence intensity (a.u.)
12,GGTTTTTCTCAGTCGCATTATTGGTCCGATCCGATCCAATCGGAGTCACCTAGTGCAG,8260 fluorescence intensity (a.u.)
13,TGTTAGTAGTTTATGCATTTATTTTCTTGCACGGAAGAATCGGAGTCACCTAGTGCAG,10600 fluorescence intensity (a.u.)
14,CTCTACTCAACACATACAACTCACTGTAATTTTGGTATAACGGAGTCACCTAGTGCAG,10500 fluorescence intensity (a.u.)
15,TAGTATTTGGGATTCCGATCGATCTTGTTTCAACGTCATTCGGAGTCACCTAGTGCAG,8580 fluorescence intensity (a.u.)
16,GCCCACTCGATCGAAGCACCAACTCGCTCGCTCTCTCGCTCGGAGTCACCTAGTGCAG,12000 fluorescence intensity (a.u.)
17,CTTTGTTTCGTGTGGTTTATTGATGCAATTCTGTTCCTGTCGGAGTCACCTAGTGCAG,10500 fluorescence intensity (a.u.)
18,CGATTCTGCTCTGCGGGGAGCCCCGACGACTGGGGCGGGGCGGAGTCACCTAGTGCAG,9950 fluorescence intensity (a.u.)
19,GGGGAGGGAGCCGGGCGGGATTCAGCCATGAGGAGGAGGGCGGAGTCACCTAGTGCAG,9050 fluorescence intensity (a.u.)
20,CTTCCCGCCACCAGTGGCACCTCCATTTTCTCCGGTTTTCCGGAGTCACCTAGTGCAG,9970 fluorescence intensity (a.u.)
21,TAACCTATCCTGCTGGATTTATATGCAGATTTTTTCTCCGCGGAGTCACCTAGTGCAG,8110 fluorescence intensity (a.u.)
